Results published in article PMC10374912 (Nature Communications, 2023).
These are yes or no findings as the source states them, for the method shown. In cells and extracts the contact can be indirect. Some binding calls cover weakened binding; strength is not graded here. Blank lines part the entries; values can stand above or below the molecule they belong to.

How the values were obtained:
[1] = target: 6XHis-3XFlag-tagged Cwt1 (C. albicans) (UniProt Q59M50); assay: co-IP; C. albicans whole cell lysates from YPGal cultures before and after AA or KCN treatment; anti-Flag or anti-HA antibody, Protein G Dynabeads; F300 buffer (50 mM HEPES-KOH pH 7.2, 300 mM KOAc, 10% glycerol) with 0.02% IGEPAL-CA630; Benzonase-treated; immunoblot
[2] = target: Zcf11-6XHis-3XFlag (C. albicans); assay: as above

Molecule: 3XHA-tagged Zcf2 (from UniProt A0A1D8PDI4 1-775)
binding [1]: no binding

binding [2]: binds
B1: Cwt1-3XHA (protein, UniProt Q59M50 1-578)
chain: MSTMSTQKANSSTPGETDSSSSLPPPEITEPTYKKPEKSTKRRKKKLEIACVYCRRSHMICDESRPCQRCIKRGIAHLCYDEPSNSRQRKKAAALRKTQSEGAPMVTSPITLPLTGSTGNQSPLPLPPLQASQSDIRSAPKTENSLQFSQPALHQQQMQENPQGASQSVHTNNTHIYSSQNQQQQPQHQQQLQQQQPQPQPQSRLIKNSVLSQTLPYNQQPFFYSEHANSEFSSLNDFLSMIDDPELVNGALNDDTDGLLNFGVGNNNNSGGSNSNINNTHNNNNNGFSISGGNSTTNLNAVLAYSPNSNLFPPTFGNEADSTQIQSQQQQPELTQQPPALNPVKVEPQAEKTEQQPVISDSARDKFFLTAADPTTEISPEERLKQVIKAKLEAGLLQPYNYAKGYARLQRYMDNYMNISSRQRILKPLSIFRPAFRAIARTLKDVDLVLVEESFERMLLDYDRVFTAMAIPACLWRRTGEIYRGNKEFASLVGVTTDDLKDGKLAIYELMSEESAVNFWEKYGAIAFDKGQKAVLTSCNLRTRDGIKRKSCCFSFTIRRDRYNIPSCIVGNFIPIDP
